Measurements as given in article doi:10.1101/783266.

Molecular target: LRX4^ΔNTΔE-HA (Arabidopsis thaliana)
Assay: co-IP

binding: binds
B1: extracellular domain (ECD) of FER fused to citrine (FER^ECD-citrine) or FLAG (FER^ECD-FLAG) (domain or fragment, UniProt Q9SCZ4 28-447)
chain: ADYSPTEKILLNCGGGASNLTDTDNRIWISDVKSKFLSSSSEDSKTSPALTQDPSVPEVPYMTARVFRSPFTYTFPVASGRKFVRLYFYPNSYDGLNATNSLFSVSFGPYTLLKNFSASQTAEALTYAFIIKEFVVNVEGGTLNMTFTPESAPSNAYAFVNGIEVTSMPDMYSSTDGTLTMVGSSGSVTIDNSTALENVYRLNVGGNDISPSADTGLYRSWYDDQPYIFGAGLGIPETADPNMTIKYPTGTPTYVAPVDVYSTARSMGPTAQINLNYNLTWIFSIDSGFTYLVRLHFCEVSSNITKINQRVFTIYLNNQTAEPEADVIAWTSSNGVPFHKDYVVNPPEGNGQQDLWLALHPNPVNKPEYYDSLLNGVEIFKMNTSDGNLAGTNPIPGPQVTADPSKVLRPTTRKSKSNTA

No constants are given. Whether binding was seen depends on the method and setting. Binding seen in cells or lysates may run through a third protein. Binding calls can cover weak binding; strength is not graded here. Tags and fused reporters may be left off the sequences shown.
